The record followed here is patent EP0114563A1, “Cytostatically effective combination” (SCHERING AKTIENGESELLSCHAFT, priority 1982, dated 1984).

In the experiment the test system is human leukemic cells. Description: Inhibition of cell proliferation (growth kinetics by cell counting) in culture. The note with it: read-out: inhibition in %, based on a control free of active agent. From the text:
Every second day, the culture medium of each test batch was replaced by fresh medium and active agent.

Read-outs that look alike come from different tables or passages of the source.

What is called inhibition is the change of the read-out against control, counted positive when it falls.

For the compound `CCN(CC)C(=O)N[C@H]1C=C2c3cccc4[nH]cc(c34)C[C@H]2N(C)C1` [Lisuride, lisuride], the inhibition at 20 µg/mL reads like this: (72 h) 17%; (144 h) 36.5%.
